Experimental data: PMC11291266
No constants are given. Whether binding was seen depends on the method and setting. Binding seen in cells or lysates may run through a third protein.

Protein sequences, listed by entry. Tags and fused reporters are not part of them. Lines headed by an entry give the natural chain unless they say otherwise; changes in a name come on top.
UniProt Q9Y4P8: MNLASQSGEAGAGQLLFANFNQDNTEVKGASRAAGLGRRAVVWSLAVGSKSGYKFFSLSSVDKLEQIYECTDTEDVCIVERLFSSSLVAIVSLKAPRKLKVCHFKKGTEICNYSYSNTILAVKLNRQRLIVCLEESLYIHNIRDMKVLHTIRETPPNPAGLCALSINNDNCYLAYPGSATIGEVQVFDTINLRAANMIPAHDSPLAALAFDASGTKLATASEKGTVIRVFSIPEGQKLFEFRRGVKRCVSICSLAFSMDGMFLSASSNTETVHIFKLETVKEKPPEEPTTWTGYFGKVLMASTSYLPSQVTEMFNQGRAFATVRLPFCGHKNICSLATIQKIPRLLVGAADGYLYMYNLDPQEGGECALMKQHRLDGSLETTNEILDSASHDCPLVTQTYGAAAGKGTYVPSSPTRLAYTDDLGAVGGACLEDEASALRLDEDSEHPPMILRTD
UniProt Q9BSU1: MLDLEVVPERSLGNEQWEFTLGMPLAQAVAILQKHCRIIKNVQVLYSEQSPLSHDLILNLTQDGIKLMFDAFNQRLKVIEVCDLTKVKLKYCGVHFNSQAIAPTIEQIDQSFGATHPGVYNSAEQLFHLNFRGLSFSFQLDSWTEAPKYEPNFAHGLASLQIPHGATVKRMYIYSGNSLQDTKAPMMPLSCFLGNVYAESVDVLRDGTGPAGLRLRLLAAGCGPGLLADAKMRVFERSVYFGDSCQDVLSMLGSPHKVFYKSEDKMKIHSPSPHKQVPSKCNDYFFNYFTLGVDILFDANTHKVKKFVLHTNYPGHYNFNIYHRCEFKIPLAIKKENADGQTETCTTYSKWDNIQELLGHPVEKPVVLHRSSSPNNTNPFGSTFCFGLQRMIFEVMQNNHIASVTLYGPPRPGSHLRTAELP

Target: GFP-WIPI2b RERE (R108E/R128E) mutant (UniProt Q9Y4P8)
Assay: co-IP; HEK293 cells transfected with the GFP-tagged bait, lysed after 24 hours in TNTE buffer (20 mM Tris-HCl pH 7.4, 150 mM NaCl, 5 mM EDTA, 0.3% Triton X-100); GFP-TRAP beads 2-3 hours at 4°C, 4 washes; endogenous partners immunoblotted

## endogenous MYTHO (from UniProt Q9BSU1 1-422)
  binding: no binding
